PubChem BioAssay AID1671195 | Yale University, 2021
Here is a random part of about 22,000 deposited reagents. About 1,510 of them (6.9%) were called active. 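Active includes knockdowns raising or lowering LDL uptake; positive z-scores mean more uptake, negative mean less.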 The numbers tell different reagents against one gene apart.

Screen: 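Genes whose knockdown alters LDL uptake in liver cancer cells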 (primary screen)
System: human Huh7 hepatoma cells
Knock-down reagent: siRNA pool against human genes, 18 nM
Duration: about 2 to 2.5 days of knockdown, then 8 h LDL uptake
Treatment: DiI-labelled LDL at 30 µg/ml for 8 h, in lipoprotein-deficient serum medium
Measured: 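Fluorescent LDL signal imaged in cells, scaled to the plate median, robust z-score for each replicate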
Reading the numbers: robust z-score: higher = more LDL uptake after knockdown
Rule for the call: 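Active when two or more replicates show a robust z-score above 2 or below -2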

robust z-score, replicate 1	robust z-score, replicate 2	robust z-score, replicate 3	call	gene symbol	pool no.
1.09	1.26	1.65	inactive	F8A1	1
0.194	-0.522	-0.216	inactive	METTL8	1
0.263	-0.0671	0.415	inactive	TRIP6	1
1.2	0.796	0.867	inactive	GYG1	1
0.0579	0.0841	0.0131	inactive	LOC343221 (retired record)	1
-1.15	-0.401	-0.104	inactive	STK39	1
-0.43	0.474	-0.621	inactive	ABCB10	1
0.357	1.22	1.08	inactive	IRAK1BP1	1
0.678	-1.07	0.705	inactive	WDR12	1
1.46	1.25	1.27	inactive	FAM171A1	1
-0.547	-0.826	-0.196	inactive	ZIC4	1
2.27	3.08	1.62	active	ZNF157	1
0.36	0.467	0.445	inactive	RASL11A	1
1.59	1.56	0.484	inactive	ATP5PF	1
0.402	-0.0465	0.975	inactive	RAB25	1
0.305	-0.935	-0.943	inactive	FAM50A	1
-0.51	-0.509	-0.108	inactive	KRTAP5-9	1
0.0359	-0.684	-0.0668	inactive	USP35	1
-0.533	0.289	-0.13	inactive	LRRFIP1	1
-1.18	-0.857	-0.828	inactive	RFXAP	1
0.991	0.503	0.462	inactive	ZNF813	1
-0.151	0.473	0.0428	inactive	OXSR1	1
1.52	0.85	0.458	inactive	NEU3	1
1.76	2.83	2.78	active	MTNR1B	1
-0.45	-0.476	0.149	inactive	UBE3D	1
0.21	-0.303	-0.28	inactive	C8G	1
-1.02	-0.696	-0.513	inactive	TIRAP	1
2.76	0.93	1.57	inactive	THOC5	1
-0.587	-1.01	-1.21	inactive	AAGAB	1
1.56	1.01	0.963	inactive	ANKUB1	1
0.637	-0.109	-0.0171	inactive	ANKUB1	2
-1.08	-0.86	-0.771	inactive	KIF26B	1
-0.483	-1.47	-1.9	inactive	KIF26B	2
0.715	0.112	0.201	inactive	KCNV1	1
-0.989	-0.202	-0.311	inactive	SLC11A2	1
0.642	-0.0132	-0.516	inactive	IGFBP7	1
-0.0894	0.473	0.46	inactive	LOC200226 (retired record)	1
-0.825	-1.15	-1.21	inactive	ZNF101	1
-0.461	-1.03	0.254	inactive	TLK1	1
0.67	1.44	-0.495	inactive	EML4	1
1.17	-0.164	-0.0447	inactive	EPPIN	1
0.244	1.2	0.226	inactive	TBC1D13	1
-1.14	-0.933	-0.607	inactive	OR8H3	1
-0.53	-0.615	-0.63	inactive	HLA-F	1
-0.835	-0.654	-1.04	inactive	LOC340148 (retired record)	1
-0.28	-0.0816	-0.111	inactive	NAPSA	1
0.519	0.0517	0.526	inactive	ANKRD36B	1
-0.555	-0.55	-0.696	inactive	ZNF343	1
-0.6	-0.572	-0.508	inactive	RPSAP48	1
2.88	0.379	0.558	inactive	TUBA4B	1
0.232	0.764	0.912	inactive	TRIOBP	1
-1.59	-1.48	-1.04	inactive	ZNF621	1
-0.944	-0.993	-0.972	inactive	SUCLG2P2	1
-1.47	-0.466	-1.32	inactive	SPAG6	1
-0.349	-0.513	-0.797	inactive	LAS1L	1
-0.0321	-0.0421	0.634	inactive	LOC392434 (retired record)	1
1.09	0.835	1.59	inactive	LMLN	1
-0.0313	0.273	-0.337	inactive	RHCG	1
-0.904	-1.29	-0.903	inactive	PPOX	1
2.84	1.01	-0.935	inactive	SPOUT1	1
0.14	-0.0107	-0.127	inactive	SARNP	1
-0.325	0.78	0.553	inactive	MME	1
1.39	1.4	1.52	inactive	ZC3H11A	1
-1.34	-1.9	-1.36	inactive	C8orf48	1
-2.23	-2.33	-2.19	active	LOC389413 (retired record)	1
0.0615	0.815	0.209	inactive	ARHGAP5	1
-0.0604	-0.361	0.36	inactive	SMYD3	1
3.26	2.5	1.96	active	LOC388480 (retired record)	1
0.0648	0.128	0.0681	inactive	LOC439930 (retired record)	1
-1.55	-1.18	-1.83	inactive	CA4	1
-2.02	-1.78	-1.79	inactive	CAMKK2	1
-0.839	-0.902	-0.399	inactive	MIGA1	1
-0.845	-1.91	-0.108	inactive	ATXN10	1
0.089	0.0813	0.199	inactive	INF2	1
-0.74	-0.79	0.434	inactive	INF2	2
-1.04	-0.681	-0.238	inactive	IGLL3P	1
-1.43	-1.23	-1.84	inactive	SCEL	1
1.26	0.979	0.749	inactive	FAM169BP	1
-2.05	-0.958	-2.28	active	NME4	1
1.11	1.08	1.68	inactive	OR1J1	1
3.16	1.71	1.61	inactive	LINC00239	1
-0.225	0.58	0.487	inactive	TARS3	1
-1.64	-1.08	-1.15	inactive	LOC442408 (retired record)	1
1.24	2.4	2.62	active	XKR5	1
0.225	-0.0842	0.566	inactive	CROT	1
-3.1	-1.75	-2.87	active	DAPP1	1
-1.15	-1.23	-1.14	inactive	PLAGL2	1

As entered above:
Under “robust z-score, replicate 1”, NEU3 reads 1.52
C8G, robust z-score, replicate 2 → -0.303
Under “robust z-score, replicate 2”, SLC11A2 is entered as -0.202
ZNF813, robust z-score, replicate 1: 0.991
Entry of RHCG under “robust z-score, replicate 3”: -0.337
Value of FAM50A in “robust z-score, replicate 2”: -0.935
